Reference: PMC4592220, “Geminivirus Activates [sequence] LEAVES 2 to Accelerate Cytoplasmic DCP2-Mediated mRNA Turnover and Weakens RNA Silencing in Arabidopsis” (PLoS Pathogens, 2015)

Biological target: T1, GST-AS2 (… LEAVES 2) (Arabidopsis thaliana) (UniProt O04479)
T1 sequence: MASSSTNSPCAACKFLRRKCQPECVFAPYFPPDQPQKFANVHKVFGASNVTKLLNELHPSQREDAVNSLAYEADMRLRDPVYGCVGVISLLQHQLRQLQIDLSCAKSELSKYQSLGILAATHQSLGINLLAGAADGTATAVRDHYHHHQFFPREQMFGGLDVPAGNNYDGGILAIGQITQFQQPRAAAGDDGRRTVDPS
Test: pull-down; 2 ug of GST/MBP/His/His-SUMO fusion proteins; binding buffer 50 mM Tris-HCl pH 7.5, 100 mM NaCl, 0.25% Triton X-100, 35 mM beta-mercaptoethanol, 2 h at 4 C, then glutathione sepharose 4B overnight; 6 washes; Western blot with anti-His, anti-GST or anti-MBP; both purified

Substance: DCP1, recombinant
- binding: binds weakly

No constants are given. Whether binding was seen depends on the method and setting. A result given as binding can be weak or reduced; the word gives no strength. Tags and fused reporters may be left off the sequences shown.
